Results of single-concentration screens

By UniProt entry, the sequences of proteins in these tests, tags left out. Residues count along the entry.
UniProt Q8IDJ8, 1-583: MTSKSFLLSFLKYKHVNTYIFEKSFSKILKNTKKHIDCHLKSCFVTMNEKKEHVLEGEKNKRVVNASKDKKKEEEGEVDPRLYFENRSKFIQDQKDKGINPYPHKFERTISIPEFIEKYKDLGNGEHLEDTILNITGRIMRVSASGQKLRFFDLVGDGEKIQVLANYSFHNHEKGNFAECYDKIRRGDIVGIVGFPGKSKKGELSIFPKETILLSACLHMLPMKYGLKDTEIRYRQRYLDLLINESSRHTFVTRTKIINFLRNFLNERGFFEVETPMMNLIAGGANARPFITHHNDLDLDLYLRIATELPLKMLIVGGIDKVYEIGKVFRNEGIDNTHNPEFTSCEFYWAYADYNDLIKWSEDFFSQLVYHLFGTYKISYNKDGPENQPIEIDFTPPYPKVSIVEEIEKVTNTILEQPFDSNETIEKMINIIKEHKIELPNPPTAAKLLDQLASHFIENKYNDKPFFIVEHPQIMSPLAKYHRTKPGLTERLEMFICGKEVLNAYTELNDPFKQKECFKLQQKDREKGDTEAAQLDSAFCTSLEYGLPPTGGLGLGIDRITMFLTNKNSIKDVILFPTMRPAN
UniProt P9WFT3, whole entry: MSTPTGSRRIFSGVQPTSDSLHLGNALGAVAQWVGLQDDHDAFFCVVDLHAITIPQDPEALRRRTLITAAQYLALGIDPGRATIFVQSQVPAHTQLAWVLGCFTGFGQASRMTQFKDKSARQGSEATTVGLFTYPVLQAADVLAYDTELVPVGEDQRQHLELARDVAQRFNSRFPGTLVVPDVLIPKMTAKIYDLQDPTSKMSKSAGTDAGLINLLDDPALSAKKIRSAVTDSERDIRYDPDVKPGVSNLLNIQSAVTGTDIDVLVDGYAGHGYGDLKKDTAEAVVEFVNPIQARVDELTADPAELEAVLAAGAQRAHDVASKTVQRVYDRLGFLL
UniProt P9WPC5, whole entry: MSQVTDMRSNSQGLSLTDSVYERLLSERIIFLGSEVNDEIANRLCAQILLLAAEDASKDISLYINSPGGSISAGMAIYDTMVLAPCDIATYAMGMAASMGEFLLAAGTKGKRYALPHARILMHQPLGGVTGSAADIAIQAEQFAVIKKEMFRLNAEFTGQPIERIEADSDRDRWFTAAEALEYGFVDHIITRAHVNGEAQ
UniProt P9WPC3, whole entry partner: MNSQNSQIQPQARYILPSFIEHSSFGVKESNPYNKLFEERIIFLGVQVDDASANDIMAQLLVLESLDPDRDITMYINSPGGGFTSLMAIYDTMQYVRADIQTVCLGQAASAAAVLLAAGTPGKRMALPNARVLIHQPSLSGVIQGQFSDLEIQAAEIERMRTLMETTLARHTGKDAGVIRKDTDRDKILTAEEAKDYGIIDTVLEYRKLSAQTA

Measurements from “University of Dundee, Small-Polar-MMV Screening Library” (2021), ChEMBL document CHEMBL3988442.

The filed quantity is “Percent Effect” (%).
The controls that fix the scale are not given in the record; negative values are as filed.
Compounds were drawn at random from those tested, without regard to their results.
A dash means the value is not listed here; it may have been measured.

A: 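Lysine-tRNA ligase, Plasmodium falciparum 3D7 (UniProt Q8IDJ8). Enzyme assay of the cytosolic lysyl-tRNA synthetase in 384-well plates, read by luminescence. Tested at 30 µM. Higher reads as stronger inhibition, judged from the few compounds that gave an IC50. About 69,000 compounds were tested under these conditions; 0.071% (about 49) showed 50% or more at least once.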
B: 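Tryptophan-tRNA ligase, Mycobacterium tuberculosis (UniProt P9WFT3). Enzyme assay of tryptophanyl-tRNA synthetase; the read-out is not stated. Concentration: 10 µM. Direction is not recorded; retested compounds ran higher, which suggests that high means inhibition. About 65,000 compounds were tested under these conditions; 0.098% (about 64) showed 50% or more at least once.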
C: 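ClpP1P2, Mycobacterium tuberculosis (UniProt P9WPC5 and UniProt P9WPC3). Protease assay of ClpP1P2, read by the AMC dye that it sets free. Tested at 50 µM. Direction is inferred from only a few compounds that gave an IC50; most scored high, so higher reads as stronger inhibition. Most other retested compounds had strongly negative values. About 69,000 compounds were tested under these conditions; 0.015% (about 10) showed 50% or more at least once.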

SMILES | A | B | C
Cc1ccc(-c2cc(C(=O)NCCCc3csc(N)n3)[nH]n2)s1 | 2.578% | 5.067% | 5.244%
O=C1NC2(CCN(C(=O)c3ccnnc3)CC2)CC1c1ccccc1 (centres undefined) | 0.4704% | -1.355% | 26.82%
c1cncc(COCc2cncc3c2CCN(Cc2ccoc2)C3)c1 | 0.4981% | - | -5.15%
CC(C)NC(=O)N1CCC2(CC1)CC[C@@]1(C(=O)N(C)C)CN(C)C[C@@H]21 | 1.482% | -5.478% | -5.9%
c1cncc(CN2CCCC3(COCCN(c4cncnc4)C3)C2)c1 (centres undefined) | 5.195% | -1.72% | -7.175%
Cc1cc(C(=O)N2CCOC[C@H](Oc3cnccn3)C2)c(C(F)(F)F)o1 | 9.675% | -4.443% | -4.623%
CN(Cc1nnc(C2CC2)n1C)C(=O)c1ccnc(OC2CCC2)c1 | -2.475% | -4.721% | -11.91%
OCCN1CCOC2(CCCN(c3cccc(F)c3)C2)C1 (centres undefined) | 2.3% | 0.8811% | 8.437%
CCOCC1CN(C(=O)c2cscn2)Cc2cnn(CC3CC3)c21 (centres undefined) | -0.8092% | -5.271% | -10.73%
Cc1ccccc1N1CCN(C(=O)CC(C)C)CC1 | 0% | -2.422% | -0.4585%
O=C(CN1CC(c2nc(-c3cccs3)no2)C1)NCC1CCCO1 (centres undefined) | -1.55% | -0.5319% | 2.452%
Cn1ccnc1CN1C[C@@H](CN2CCCC2)[C@@H](CO)C1 | -0.2807% | 1.814% | -9.67%
CCCn1cc(NC(=O)NCC2CCS(=O)(=O)C2)nn1 (centres undefined) | 3.887% | 0.7341% | 4.528%
Cn1ccc(CN2CCC(NC(=O)NC3CCCCC3)CC2)cc1=O | 4.103% | -0.2227% | 3.84%
Cc1nc(CN2C(=O)CCC23CCN(Cc2cccn2C)CC3)cs1 | -3.963% | -6.826% | -18.16%
O=C(c1cscn1)N1C[C@H]2CCC[C@@]2(COCc2ccccn2)C1 | 3.637% | - | -12.25%
CCn1cc(CNC2CCN(c3cccc(C)c3C)CC2)cn1 | 2.369% | -2.98% | -14.28%
Cc1nn(C)c(C)c1C1CCCN1C(=O)c1cnccn1 (centres undefined) | 0.3969% | 2.3% | -8.225%
CN(C(=O)OC(C)(C)C)C1CCN(C(=O)c2ccc(Cl)o2)C1 (centres undefined) | 4.373% | -5.094% | -4.162%
CCCc1nc(N2CCCN3CCC[C@H]3C2)c2cnn(C)c2n1 | -3.453% | -0.2945% | 7.087%
Cc1nc(-c2c(-c3ccccc3)ncn2[C@H]2C[C@@H](C(=O)O)N(C)C2)co1 | -0.147% | -1.445% | -1.38%
COCCN1C(=O)[C@H]2CC[C@@H]1CN(C(=O)COc1ccc(F)c(Cl)c1)C2 | 5.808% | 9.338% | 1.362%
Cn1cccc1C(=O)N1CCCn2nc(CCC(=O)NC3CC3)cc2C1 | 0.8722% | -0.7337% | 21.37%
COC[C@]1(O)CCN(C(=O)c2cccc(CN(C)C)c2)CC1(C)C | -1.287% | -0.819% | -1.964%
COCCN1C(=O)C[C@H]2[C@H]1CCN2C(=O)c1ccc[nH]1 | 4.167% | -0.7508% | -3.037%
Cc1c(OCC(=O)NCc2ccccc2Cl)c(=O)ccn1C | 2.958% | 2.311% | -2.708%
CC(C)(C)n1ncc2c1NC(=O)CC2c1c(F)cccc1F (centres undefined) | 5.99% | 0.618% | -11.64%
Cc1ccc(NC2CCN(C(=O)CCc3ccccc3)CC2)nn1 | 4.732% | -5.13% | -4.858%
Cn1cc(C2CCCN2Cc2csc(C(C)(C)C)n2)cn1 (centres undefined) | 13.64% | -0.07868% | 0.3023%
CN(C)C(=O)CCS(=O)(=O)Cc1cc(Cl)c2c(c1)OCO2 | 2.857% | -2.568% | -35.02%
CN(C)[C@@H]1CN(Cc2ccccn2)C[C@H]1c1cn(C)c2ccccc12 | -1.765% | -4.297% | -25.23%
CCCc1noc(CN2CCN(CCC(C)C)CC2)n1 | 2.125% | -6.245% | -0.2089%
CCOc1ccc(NC(=O)C2OC(c3cccs3)=NN2C(C)=O)cc1 (centres undefined) | 2.234% | - | -5.823%
CCN(Cc1cc(F)c(OC)c(Cl)c1)Cc1noc(CC(C)C)n1 | 3.104% | -5.039% | -5.31%
O=C(C1CCCO1)N1CCCn2c(nnc2Cn2cccc2)C1 (centres undefined) | 13.05% | 1.834% | -3.001%
COCCN1CC2(CCOCC2)c2cc(NC(=O)C3CC=CC3)ccc21 | 2.743% | - | 9.994%
CN(C(=O)OC(C)(C)C)C1CCN(C(=O)c2cc(Cl)c[nH]2)C1 (centres undefined) | -2.43% | 0.09633% | -4.963%
CC(C)C1CN(c2ncccc2Cl)CCC(=O)N1Cc1ccc(F)cc1 (centres undefined) | 3.22% | 0.4016% | 1.606%
CC(C)(C)c1ccc(=O)n(CN2CCCC(C(F)(F)F)C2)n1 (centres undefined) | 2.277% | -4.489% | -4.548%
Cc1cc(=O)[nH]c(-n2nc(-c3ccccc3)cc2N)n1 | 2.321% | -3.307% | 11.61%
COc1c(CNC(c2cccc(F)c2)c2nccn2C)c(C)nn1C (centres undefined) | 2.68% | 5.587% | -5.675%
CN1CC(=O)N(c2cccnc2)CC12CCN(C(=O)c1cccnc1)C2 (centres undefined) | 1.21% | 4.302% | 13.76%
COc1cc(N2CCCC(c3nccn3Cc3cscn3)C2)nc(N)n1 (centres undefined) | 3.156% | 4.595% | -1.633%
COc1cc(C2CC(=O)Nc3c2c(=O)[nH]n3C2CCCC2)ccc1O (centres undefined) | -1.886% | -5.543% | -3.781%
CCCN1CCCC2(CCN(Cc3noc(C4CCCC4)n3)C2)C1=O (centres undefined) | 2.336% | 7.842% | 7.258%
CCc1nc(CC2CN(c3ncnc4sc(C)c(C)c34)CCO2)no1 (centres undefined) | 1.468% | -0.618% | -20.58%
CCOC1CCN(C(=O)c2cnn(-c3ccccc3Cl)c2)CC1 | 4.07% | 0.07825% | 1.97%
NC(=O)Cn1c(CO)cnc1SCc1ccccc1Cl | 1.593% | -4.25% | 20.87%
Cn1ncc2c(NC3CCC3)nc(-c3ccncc3)nc21 | 5.019% | 2.177% | -11.2%
CCN(CC)c1ccc(NS(=O)(=O)c2cnn(C)c2)cn1 | 1.452% | 3.701% | -36.84%
CCN(C)c1ncnc2c1CCN(Cc1ccc(OC)cc1)CC2 | -5.699% | -5.849% | 7.305%
c1cncc(COCc2nnc3n2CCN(CC2CC2)C3)c1 | 4.068% | 5.37% | 5.867%
CC(C)CN1CC[C@H]2OCC[C@@H](C(=O)N3CCCO3)[C@@H]2C1 | -1.126% | -1.521% | -12.31%
COc1ccccc1C(O)Cn1cc(C(=O)NCc2ccco2)nn1 (centres undefined) | -1.369% | -5.395% | -4.915%
CCc1nc(C2CCCN2C(=O)c2cnc[nH]2)no1 (centres undefined) | 0.2347% | -1.967% | -15.7%
CN(Cc1cccnc1)[C@@H]1CN(C(=O)NC2CC2)[C@@H]2CCCO[C@H]12 | -2.217% | 3.103% | -24.7%
CN(Cc1ccncc1)Cc1nccn1Cc1ccccc1 | -2.751% | 0.000009% | 1.113%
CC1=N[C@@]2(CC[C@@H]3CN(S(=O)(=O)C4CC4)C[C@@H]32)C(=O)N1CC(C)C | -3.831% | 8.642% | -4.026%
Cc1ccc(-c2nnc(CN3CCc4nn(C)c(=O)cc4C3)o2)cc1 | 13.16% | 12.29% | -14.71%
CCc1cccc(OC2CN(C(=O)[C@@H](N)[C@@H](C)O)C2)c1 | -2.566% | 1.06% | -4.914%
COCC(=O)N(C)Cc1nc(N2CCCC2)ncc1-c1ccncc1 | 3.368% | 10.95% | -5.68%
Cn1ccc(NC2CCN(C3CC3)C2=O)n1 (centres undefined) | -8.517% | 5.924% | -4.478%

Repeated from the top, 7 entries:

For Cc1ccc(-c2cc(C(=O)NCCCc3csc(N)n3)[nH]n2)s1 the result was A: 2.578%; B: 5.067%; C: 5.244%.
For O=C1NC2(CCN(C(=O)c3ccnnc3)CC2)CC1c1ccccc1 (centres undefined) the result was A: 0.4704%; B: -1.355%; C: 26.82%.
For c1cncc(COCc2cncc3c2CCN(Cc2ccoc2)C3)c1 the result was A: 0.4981%; C: -5.15%.
For CC(C)NC(=O)N1CCC2(CC1)CC[C@@]1(C(=O)N(C)C)CN(C)C[C@@H]21 the result was A: 1.482%; B: -5.478%; C: -5.9%.
For c1cncc(CN2CCCC3(COCCN(c4cncnc4)C3)C2)c1 (centres undefined) the result was A: 5.195%; B: -1.72%; C: -7.175%.
For Cc1cc(C(=O)N2CCOC[C@H](Oc3cnccn3)C2)c(C(F)(F)F)o1 the result was A: 9.675%; B: -4.443%; C: -4.623%.
For CN(Cc1nnc(C2CC2)n1C)C(=O)c1ccnc(OC2CCC2)c1 the result was A: -2.475%; B: -4.721%; C: -11.91%.